From publication PMC8577927 come the findings set out here.

By UniProt entry, the sequences of proteins in these tests, tags left out.
UniProt A0A452E2Q3: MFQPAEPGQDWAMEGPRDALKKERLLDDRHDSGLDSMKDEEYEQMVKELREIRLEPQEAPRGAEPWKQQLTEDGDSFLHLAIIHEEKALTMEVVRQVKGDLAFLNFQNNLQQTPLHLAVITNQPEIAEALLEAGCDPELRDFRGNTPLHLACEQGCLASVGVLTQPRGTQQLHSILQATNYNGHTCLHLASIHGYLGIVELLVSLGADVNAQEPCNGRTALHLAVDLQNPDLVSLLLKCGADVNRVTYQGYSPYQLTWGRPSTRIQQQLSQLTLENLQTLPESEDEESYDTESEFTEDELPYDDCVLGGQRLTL
UniProt A0A452EP88: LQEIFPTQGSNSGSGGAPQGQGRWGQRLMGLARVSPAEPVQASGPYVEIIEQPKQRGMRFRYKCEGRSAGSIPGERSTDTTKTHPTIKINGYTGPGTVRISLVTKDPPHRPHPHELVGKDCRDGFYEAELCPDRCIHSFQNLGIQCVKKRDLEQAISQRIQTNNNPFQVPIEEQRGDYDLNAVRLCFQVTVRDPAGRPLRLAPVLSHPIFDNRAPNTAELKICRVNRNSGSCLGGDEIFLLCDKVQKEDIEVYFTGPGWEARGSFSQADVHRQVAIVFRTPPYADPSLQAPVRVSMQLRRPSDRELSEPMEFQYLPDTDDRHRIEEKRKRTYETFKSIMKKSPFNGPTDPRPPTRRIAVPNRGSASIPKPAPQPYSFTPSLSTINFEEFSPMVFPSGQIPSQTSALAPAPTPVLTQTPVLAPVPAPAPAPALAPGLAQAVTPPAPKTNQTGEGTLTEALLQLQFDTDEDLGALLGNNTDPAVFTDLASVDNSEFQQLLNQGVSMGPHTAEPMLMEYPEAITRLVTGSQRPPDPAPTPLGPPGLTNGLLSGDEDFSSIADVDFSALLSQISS

No constants are given. Whether binding was seen depends on the method and setting. Binding seen in cells or lysates may run through a third protein. Some binding calls cover weakened binding; strength is not graded here.

Experiment [1] deals with T1, Nuclear factor E2-related factor 2 (NRF2) (goat (endogenous in gEECs)).
T1 sequence: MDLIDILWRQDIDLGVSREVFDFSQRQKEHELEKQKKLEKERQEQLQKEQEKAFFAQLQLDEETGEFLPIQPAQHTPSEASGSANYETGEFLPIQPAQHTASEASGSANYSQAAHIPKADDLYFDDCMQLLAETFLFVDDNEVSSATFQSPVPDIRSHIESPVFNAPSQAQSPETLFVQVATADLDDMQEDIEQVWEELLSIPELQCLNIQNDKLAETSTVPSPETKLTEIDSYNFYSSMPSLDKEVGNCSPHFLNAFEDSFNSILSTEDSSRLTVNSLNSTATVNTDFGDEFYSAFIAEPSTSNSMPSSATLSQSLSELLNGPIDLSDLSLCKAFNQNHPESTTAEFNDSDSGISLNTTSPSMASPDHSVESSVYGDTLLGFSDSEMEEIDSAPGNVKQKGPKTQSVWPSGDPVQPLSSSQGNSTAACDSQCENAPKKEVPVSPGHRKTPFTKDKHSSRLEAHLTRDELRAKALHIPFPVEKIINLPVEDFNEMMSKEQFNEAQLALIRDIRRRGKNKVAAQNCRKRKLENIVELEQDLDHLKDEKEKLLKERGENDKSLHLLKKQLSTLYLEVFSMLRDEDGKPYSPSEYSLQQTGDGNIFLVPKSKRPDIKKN
The experiment in a line: co-IP; NRF2 (D1Z9C) antibody added to 200 μg protein of gEEC lysate (8 μg/mL LPS for 12 hours) for 12 hours at 4°C, protein A/G beads; rabbit IgG as negative control; immunoblotting with NRF2, TLR4, IκBα and p65 antibodies. A general note: Immunoblotting shows a protein as a band on a membrane.

Experiment [2] concerns the target NF-κB p65 (goat (endogenous in gEECs)). Briefly: co-IP; p65 antibody on isolated nuclear and cytoplasmic proteins of gEECs (8 μg/mL LPS for 12 hours); result told for the nuclear fraction; immunoblotting with NRF2 antibody.

For IκBα (from UniProt A0A452E2Q3 1-314), in experiment [1], the binding entry is “no binding”.

Consider “NF-κB p65 (from UniProt A0A452EP88 1-571)”, for which the binding entry in experiment [1] was “binds”.

B1: Nuclear factor E2-related factor 2 (NRF2) (protein, UniProt A0A0A7MB97 1-616)
chain: T1 sequence
In the case of B1, in experiment [2], the binding result is listed as “binds”.
